From publication PMC9182007, “Statistical Methods in the Study of Protein Binding and Its Relationship to Drug Bioavailability in Breast Milk” (Molecules, 2022)

Protein sequences, listed by entry. Tags and fused reporters are not part of them. Residues count along the entry.
UniProt P02768, 25-609: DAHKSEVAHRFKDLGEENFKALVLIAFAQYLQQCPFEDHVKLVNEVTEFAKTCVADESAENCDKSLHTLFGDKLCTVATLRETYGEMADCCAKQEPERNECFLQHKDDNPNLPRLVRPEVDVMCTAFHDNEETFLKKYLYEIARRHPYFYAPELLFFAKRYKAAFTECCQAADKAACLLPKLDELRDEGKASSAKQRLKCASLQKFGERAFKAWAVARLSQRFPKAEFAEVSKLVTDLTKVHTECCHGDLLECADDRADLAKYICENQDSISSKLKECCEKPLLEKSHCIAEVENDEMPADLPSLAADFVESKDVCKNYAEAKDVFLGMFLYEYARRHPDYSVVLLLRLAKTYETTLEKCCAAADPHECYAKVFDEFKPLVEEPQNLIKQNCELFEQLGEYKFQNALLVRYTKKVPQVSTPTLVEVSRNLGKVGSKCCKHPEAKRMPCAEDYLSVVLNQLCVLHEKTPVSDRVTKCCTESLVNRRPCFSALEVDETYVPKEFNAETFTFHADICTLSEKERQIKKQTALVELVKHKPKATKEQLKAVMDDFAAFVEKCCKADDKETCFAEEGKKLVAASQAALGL

Molecular target: human serum albumin (HSA) (Homo sapiens, UniProt P02768)
Conditions: pH 7.4

Clc1ccc2c(c1)CCc1cccnc1C2=C1CCNCC1 [desloratidine]
k HSA: 5.97 | log k HSA: 0.78
